The list is a part of this screen's results and no random one: it is rich in T/C values a quarter to a half above the control, in often repeated tests (any T/C) and in doses without a T/C. Other doses and runs of a compound stand elsewhere. T/C: endpoint of the treated group in % of that of the vehicle group. Some doses have a count of surviving animals in place of a T/C: the source holds a T/C of zero for them, seemingly a mark for toxic or unscored doses. Some survivor counts are full or nearly so, which does not show that the dose was tolerated: survival well below the control is almost never listed, so the zero probably covers shortened survival too. Counts of survivors are from the toxicity check (mostly the fifth day) where no day follows; animals may have died later. Schedule codes are those of the source, taken here to give the interval after Q, in days (D) or hours (H), and the number of doses after X.

For the assay, the system named is L1210 leukemia ip in BDF1 mice, survival T/C. Briefly: NCI In Vivo Anticancer Drug Screen. Data for tumor model L1210 Leukemia (intraperitoneal) in B6D2F1 (BDF1) mice. To be noted: T/C endpoint: mean survival time, higher T/C = longer survival.

`CC(C)(C)[CH2][Sn]([Cl])([CH2]C(C)(C)C)[CH2]C(C)(C)C`: the survivor count is, setting by setting: (dose: 25.0 mg/kg/injection, schedule: Q04DX002 (ip), vehicle: saline with Tween-80) 1 of 6; (dose: 50.0 mg/kg/injection, schedule: Q04DX002 (ip), vehicle: saline with Tween-80) 4 of 6.

On to `O=C(CCC(=O)c1ccccc1)OCc1ccccc1`, for which the survivor count (dose: 400.0 mg/kg/injection, schedule: Q04DX002 (ip), vehicle: Klucel (hydroxypropylcellulose) (HPC)) is 3 of 3.

Take `Cc1ccc(COc2ccc(Cl)cc2Cn2ccnc2)cc1`: the survivor count is, setting by setting: (dose: 200.0 mg/kg/injection, schedule: Q01DX009 (ip), vehicle: saline) 2 of 6; (dose: 400.0 mg/kg/injection, schedule: Q01DX009 (ip), vehicle: saline) 0 of 6.

Source of the values: PubChem BioAssay AID248 (DTP/NCI, 2004).
